In paper PMC4439085:
Results are given in words; binding and its absence hold for the method and conditions named. Binding seen in cells or lysates may run through a third protein. Some entries that bind do so weakly or less than the wild type. Where a sequence is shown, tags or fusion partners need not be part of it.

Chains of the proteins cited; added tags and fusions are not shown.
UniProt P40235: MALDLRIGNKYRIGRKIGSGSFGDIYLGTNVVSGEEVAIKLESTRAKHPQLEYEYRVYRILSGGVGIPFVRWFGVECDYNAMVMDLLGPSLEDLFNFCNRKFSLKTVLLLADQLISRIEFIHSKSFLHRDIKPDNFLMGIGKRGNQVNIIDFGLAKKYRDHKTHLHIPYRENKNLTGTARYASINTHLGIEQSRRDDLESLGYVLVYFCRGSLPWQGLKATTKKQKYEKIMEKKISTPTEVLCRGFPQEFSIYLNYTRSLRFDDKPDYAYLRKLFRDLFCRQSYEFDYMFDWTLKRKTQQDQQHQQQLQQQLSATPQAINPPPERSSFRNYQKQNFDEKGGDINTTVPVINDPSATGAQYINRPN

Molecular target: T1, Hhp2-TAP (Schizosaccharomyces pombe) (UniProt P40236)
T1 sequence: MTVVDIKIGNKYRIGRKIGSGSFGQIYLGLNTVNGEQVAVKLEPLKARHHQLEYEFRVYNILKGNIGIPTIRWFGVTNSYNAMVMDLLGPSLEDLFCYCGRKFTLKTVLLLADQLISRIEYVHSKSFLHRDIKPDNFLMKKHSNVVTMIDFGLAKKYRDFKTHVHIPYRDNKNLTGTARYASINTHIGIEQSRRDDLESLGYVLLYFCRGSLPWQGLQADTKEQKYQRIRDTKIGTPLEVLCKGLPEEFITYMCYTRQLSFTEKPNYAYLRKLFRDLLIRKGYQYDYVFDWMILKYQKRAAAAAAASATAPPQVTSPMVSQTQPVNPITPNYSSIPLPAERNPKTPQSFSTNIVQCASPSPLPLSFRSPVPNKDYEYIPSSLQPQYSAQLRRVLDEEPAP
Assay: co-IP; extracts of cells induced for meiosis; Hhp2-TAP bound to IgG beads, Hhp1-PK9 detected by Western blotting with anti-PK antibody

For “Hhp1-PK9 (from UniProt P40235 1-365) (enzyme)”, the binding was “binds”.
